Assay results published in paper PMC3901934, “CAS directly interacts with vinculin to control mechanosensing and focal adhesion dynamics” (Cellular and Molecular Life Sciences: CMLS, 2013).
Changes are numbered by the printed parent chain. These are yes or no findings as the source states them, for the method shown. Binding seen in cells or lysates may run through a third protein. A yes stands for co-enrichment or nearness to the bait. Other partners may have been found. Sequences can lack the tags named with a protein.

Sequences of proteins named here, by UniProt entry; tags and fusion partners are left off.
UniProt Q05397: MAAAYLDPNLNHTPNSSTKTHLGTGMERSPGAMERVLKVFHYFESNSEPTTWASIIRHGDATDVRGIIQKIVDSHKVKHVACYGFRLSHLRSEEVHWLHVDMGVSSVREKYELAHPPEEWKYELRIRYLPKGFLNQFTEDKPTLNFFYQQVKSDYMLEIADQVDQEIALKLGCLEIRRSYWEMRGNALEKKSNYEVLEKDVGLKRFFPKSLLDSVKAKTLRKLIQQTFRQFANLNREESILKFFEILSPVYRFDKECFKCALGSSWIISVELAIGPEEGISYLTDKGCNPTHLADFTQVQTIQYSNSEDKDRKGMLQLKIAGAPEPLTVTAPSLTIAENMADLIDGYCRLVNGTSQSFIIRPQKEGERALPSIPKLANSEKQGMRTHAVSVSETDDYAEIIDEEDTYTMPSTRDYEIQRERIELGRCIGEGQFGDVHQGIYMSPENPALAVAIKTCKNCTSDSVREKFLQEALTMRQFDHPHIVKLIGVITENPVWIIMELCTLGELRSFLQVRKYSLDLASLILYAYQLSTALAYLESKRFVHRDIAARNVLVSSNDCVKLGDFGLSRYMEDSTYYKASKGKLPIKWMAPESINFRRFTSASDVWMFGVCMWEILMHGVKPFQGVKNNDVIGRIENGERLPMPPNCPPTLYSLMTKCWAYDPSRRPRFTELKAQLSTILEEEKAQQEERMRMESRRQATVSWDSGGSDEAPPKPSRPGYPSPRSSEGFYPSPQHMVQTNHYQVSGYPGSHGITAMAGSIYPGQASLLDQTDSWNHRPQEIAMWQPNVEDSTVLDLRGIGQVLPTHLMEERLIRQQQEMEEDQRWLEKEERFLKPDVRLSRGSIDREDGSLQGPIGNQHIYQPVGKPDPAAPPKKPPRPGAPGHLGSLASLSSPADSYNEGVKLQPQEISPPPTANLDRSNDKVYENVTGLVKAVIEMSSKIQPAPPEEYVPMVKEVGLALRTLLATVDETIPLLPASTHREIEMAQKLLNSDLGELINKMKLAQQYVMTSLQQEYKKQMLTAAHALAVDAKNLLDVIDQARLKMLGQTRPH

Experiments:
[1] = target: T1, GST fused CAS SH3 domain, WT (UniProt Q61140); experiment: affinity purification with mass spectrometry; purified GST-CAS SH3 variants incubated with HeLa cell lysate (affinity chromatography); bound proteins separated by SDS-PAGE; peptide mass fingerprinting, MALDI TOF/TOF; only the target purified
T1 sequence: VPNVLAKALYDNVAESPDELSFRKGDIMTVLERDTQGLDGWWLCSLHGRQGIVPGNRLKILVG

[2] = target: T2, GST fused CAS SH3 domain, Y12F (UniProt Q61140); experiment: as above
T2 sequence: T1 sequence with Y10F

FAK (HeLa cell lysate) (from UniProt Q05397 1-1052)
binding [1]: binds
binding [2]: binds
